In article PMC9264554:
The exact form of at least one protein or probe is not confirmed. No signal at the amounts used counts as a negative.

Tested on: GST-SRMT.3
Test: EMSA
Settings: LightShift Chemiluminescent EMSA Kit (Pierce), per manufacturer, pH and temperature not stated, recombinant protein, protein details: GST (N-terminal, pGEX4T-1), label: biotin

“ACTTGCACATGGAAAAAAAAGGCTATTTGATG (double strand) [mutant ME5]”: no binding.
“ACTTGCACATGGATAAGGTCGGCTATTTGATG (double strand) [ME5]”: binds (cold probe competes).
“CAAAATGAAACACAAAAAAAATGTGGACATTAG (double strand) [mutant ME4]”: no binding.
“CAAAATGAAACACGACCAAACTGTGGACATTAG (double strand) [ME4]”: binds (cold probe competes, strongest of the MEs).
“TCTCGAAGTTTAAAAAAAACTTCATCAATC (double strand) [mutant ME2]”: no binding.
“TCTCGAAGTTTGACCTTCCCTTCATCAATC (double strand) [ME2]”: binds (cold probe competes).
